Experiment: 13C acquisition with deuterium decoupling / proton NOE and decoupling at 11.8 T
Type: physicochemical

In the case of `[2H]C([2H])(O)[13C]([2H])([2H])[N+](C)(C)C` [[1,1,2,2-D4,2-^13C]-choline], the “Enhancement of the carbon-13 signal at position 2 by deuterium decoupling” value (in water) is reported as 3 fold, the “Overall natural linewidth of the signal (split signal envelope) before deuterium decoupling” value (in water) is reported as “about 100 Hz” and the “Overall natural linewidth of the signal with deuterium decoupling” value (in water) is reported as “about 5 Hz”. For the same compound, the “Increase of signal-to-noise ratio of the 13C nucleus at position 2 by proton NOE and decoupling” value (proton irradiation prior to and during 13C acquisition) was “factor of two”.
